Measured values: patent US20210361767A1, “RESCUING CANCER PATIENTS FROM RESISTANCE TO TREATMENT WITH INHIBITORS OF PD-1/PD-L1 INTERACTIONS” (Mayo Foundation for Medical Education and Research, priority 2018, published 2021)
At least one compound was matched to its structure with a doubt left.

System: Dul45 prostate cancer cells
Experiment: sPD-L1 ELISA of supernatants of Dul45 prostate cancer cells
Format: cell-based
Conditions: FIG. 4C
Experimental: Several tumor cell lines were treated with PBS (placebo) or with various protease inhibitors, including matrix metalloprotease inhibitors TAPI-2 and TAPI-0, aspartic protease inhibitor Pepstatin, cysteine protease inhibitor E-64, serine protease inhibitor Aprotinin, combinations of these inhibitors, and an array of other matrix metalloprotease inhibitors. Cell supernatants were queried for sPD-L1 by ELISA as published elsewhere (Frigola et la., supra). In brief, paired mouse IgG2 monoclonal antibodies against extracellular rhB7-H1 were utilized in a capture-detection plate assay using biotinylation and HRP-streptavidin detection. […] Concentrations were determined by optical density measurements along a known standard curve of rhB7-H1. Karpas-299 cells were incubated at 10 MM cells per ml in cell culture media (RPMI plus FBS plus Penicillin/Streptomycin plus buffering reagents) over 24 hours in the presence of 1 μl/100 μl DMSO or PBS (placebo), TAPI-2 at 278 μM, Pepstatin at 206.5 μM, E-64 at 185 μM, or Aprotinin at 220 μM, or a combination of the above materials at various concentrations. […] All statistical analyses were performed using R! software. Two-sided, unpaired Student t tests assessed statistical differences in experimental groups except where otherwise indicated. P values indicate comparison to vehicle control groups. P<0.05 was considered statistically significant. […]

**Q.** For `C[C@H]1c2cccc(O)c2C(=O)C2=C(O)[C@]3(O)C(=O)C(C(N)=O)=C(O)[C@@H](N(C)C)[C@@H]3[C@@H](O)[C@@H]21` [doxycycline], which “sPD-L1 secretion versus controls” value is on record?
**A.** Its value is “significantly reduced”.
